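Whole-cell assay for inhibitors of Mycobacterium tuberculosis growth, labelled Cornell in the record; the read-out is not stated. The concentration is filed as 10 mM, unlikely as a test dose, so the dose is not known. Higher means stronger inhibition (inferred from two other growth screens of the library). Size under these conditions: about 53,000 compounds, about 900 of them at 50% or above in at least one test.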

Each number is a percent effect as filed. How 0% and 100% were set is not recorded. Most values in the screen are low, and negative values occur. The compounds are a random part of those screened.

| Compound | effect |
|---|---|
| `Cc1ccc2c(c1)SCC(=O)N2CC(=O)N1CCCC1c1cc(C)on1` (stereo unspecified) | -6.374 |
| `COCCNC(=O)C1CN(Cc2cccc(C)n2)Cc2ccnn2C1.O=C(O)C(F)(F)F.O=C(O)C(F)(F)F` (stereo unspecified) | 13.09 |
| `CCC1CN(CC(=O)NCCC#N)CCO1` (stereo unspecified) | -30.56 |
| `CCc1nnsc1C(=O)NCCc1nnc2n1CCC2` | -83.93 |
| `O=C(CCN1CCOC1=O)N(Cc1ccncc1)CC1CCCO1` (stereo unspecified) | -11.21 |
| `O=C(O)CC(O)(CC(=O)O)C(=O)O.[H][C@]12CC[C@](O)(c3ccccn3)[C@@]1([H])CN(Cc1cccc3ncccc13)C2` | 15.46 |
| `COc1ncc(CN2CCC3(CCCN(CC4CCCCC4)C3)C2)cn1` (stereo unspecified) | -12.66 |
| `Cc1nn(-c2ccc(F)cc2)c2[nH]nc(N)c12` | 67.22 |
| `CCN1CCn2c(C)cnc2C12CCN(C(=O)NC)CC2.O=C(O)C(F)(F)F` | 2.328 |
| `CCCS(=O)(=O)N1CCN(C(=O)CO)CC1` | 9.3 |
| `Cc1nn(C)cc1CN(C)c1nccc(-c2cn(C)nc2C)n1` | 29.74 |
| `Cc1ccc(-c2nc(CNC(C)CCO)[nH]c2-c2ccccn2)cc1` (stereo unspecified) | 32.87 |
| `CN(Cc1cn2c(n1)CN(Cc1ccsc1)CC2)Cc1ccco1.O=C(O)C(F)(F)F.O=C(O)C(F)(F)F` | 9.917 |
| `CCOc1cc(C(=O)N2CCCC(c3noc(C(C)C)n3)C2)ccn1` (stereo unspecified) | -0.973 |
| `O=C(Cn1nnn(-c2cccs2)c1=O)N(CC1CCOC1)C1CC1` (stereo unspecified) | -60.76 |
| `Cc1oncc1C(=O)N1CCC2(CCN(Cc3cccc(F)c3)C2=O)C1` (stereo unspecified) | 14.18 |
| `COc1cc(NC(=O)NCc2cc(C)oc2C)cc(OC)c1` | 23.46 |
| `COCC(=O)N1CCC2(COCc3cnc(N4CCOCC4)nc32)C1` (stereo unspecified) | 2.982 |
| `CCN(CC)C(=O)c1cc(Br)cc(S(=O)(=O)N2CCOCC2)c1F` | 18.95 |
| `CC(C#N)NS(=O)(=O)c1cccc(C(C)C)c1` (stereo unspecified) | -0.9617 |
| `COC(=O)c1ccc(CNCc2ccn(C)n2)cc1` | -40.77 |
| `Cn1nnnc1SCCNC(=O)C1CCN(C(=O)C2CCC2)CC1` | -26.23 |
| `CCC(=O)N1CCCC(c2cc(Nc3ncccn3)nc(C)n2)C1` (stereo unspecified) | -28.46 |
| `C[C@@H]1CN(C(=O)C2CCS(=O)(=O)CC2)C[C@]1(C)O` | 44.74 |
| `O=C(CCc1ccsc1)NCC1CCN(c2ccccc2)C1` (stereo unspecified) | 19.4 |
| `Cl.Cl.Cl.c1cncc(CNc2ccc3nc(C4CCNCC4)nn3c2)c1` | -9.123 |
| `O=C(O)C(F)(F)F.[H][C@@]12CN(C(=O)C(C)C)CCC[C@]1(C(=O)N(C)C)CN(c1ccccn1)C2` | -21.57 |
| `CCc1nc(C2CCCN(c3ncccn3)C2)no1` (stereo unspecified) | 2.047 |
| `CC(C)c1cc2c(O)nc(CSCC(=O)NCc3ccccn3)nc2s1` | 32.92 |
| `O=C(O)c1ccnc(SCC(=O)c2ccccc2)c1` | -20.18 |
| `c1cnc2[nH]c(C3CCCC3)c(CN3CCOCC3)c2c1` | 24.1 |
| `Cc1cc(C)cc(CNC(C)c2c(C)nn(C)c2C)c1` (stereo unspecified) | 10.88 |
| `CCc1ccc(C(=O)NC(C)c2ccc(S(C)(=O)=O)c(F)c2)o1` (stereo unspecified) | -29.24 |
| `Cc1c(C2SCC(=O)Nc3c2c(O)nn3C2CCCCC2)cnn1C` (stereo unspecified) | 12.18 |
| `Cc1ccc(C(=O)N2CCn3cc(CN4CCCCC4)nc3C2)o1.O=C(O)C(F)(F)F` | -18.45 |
| `COc1cc(CNC2CCc3nc(C)nn3C2)cc2c1OCCO2` (stereo unspecified) | 11.42 |
| `CC(Cn1cccn1)NCCS(=O)(=O)c1ccc(Cl)cc1` (stereo unspecified) | 44.22 |
| `O=C(NCC(F)(F)F)C1CCCN(Cc2ccno2)C1` (stereo unspecified) | 2.789 |
| `Cc1cc(C)nc(Nc2nccnc2C2CCCN(CCO)C2)n1` (stereo unspecified) | 54.85 |
| `CCS(=O)(=O)c1ncc(CN(C)Cc2cccc(OC)c2)n1CCOC` | 6.961 |
| `Cc1cccc(NC(=O)N2CCC3(CC(=O)N(c4ccsc4)C3)C2)c1` (stereo unspecified) | 29.79 |
| `CC(C)SCc1cccc(NC(=O)NC(C)c2nc[nH]n2)c1` (stereo unspecified) | 34.39 |
| `CN(C)c1cccc(C2CCCN2CCCN2CCOC2=O)c1` (stereo unspecified) | -73.67 |
| `CS(=O)(=O)CCN(CCc1cccc(F)c1)C1CC1` | 7.342 |
| `COCCN(Cc1cccs1)C(=O)c1ccc(=O)n(C)c1` | 19.76 |
| `COCCCN(C)c1ncccc1I` | -8.993 |
| `O=C(CN1C(=O)CCC1=O)NCC1(O)CCc2ccccc21` (stereo unspecified) | -10.53 |
| `CNC(=O)c1cccc(CNC2CCSc3c(Cl)cccc32)c1` (stereo unspecified) | 9.278 |
| `CSCCC(Nc1nc(C)cc(C)n1)C(=O)NC1CCCC1` (stereo unspecified) | 26.62 |
| `Cc1nn(C)c2c(=O)n(C)c(NCC3CCCO3)nc12` (stereo unspecified) | 1.128 |
| `O=C(O)C(F)(F)F.O=C(O)C(F)(F)F.[H][C@@]12CCCO[C@]1([H])[C@@H](OCc1cccnc1)CN2c1nnc(C)s1` | -26.14 |
| `O=C(NCCCN1CCOCC1)c1ccc(-n2ccc3ccccc32)s1` | -5.378 |
| `COc1ccc(-c2nnc(SC(C)C(=O)NC3CCCC3)[nH]2)c(OC)c1` (stereo unspecified) | -11.32 |
| `CSCCC(C)(O)CNC(=O)Nc1ccccc1C` (stereo unspecified) | 17.71 |
| `CC(C)[C@@H]1CN(Cc2ccccc2C#N)C[C@H]1N(C)C` | -5.351 |
| `O=C(NCCSc1cnn[nH]1)c1c[nH]nc1C1CCCCC1` | 22.91 |
| `COCCN(C)C(=O)c1ccccc1-n1cccn1` | -34.29 |
| `COc1cccc(CN2C[C@@H](F)[C@@H](OCc3nc4cnccc4[nH]3)C2)c1` | -4.659 |
| `N#Cc1cccnc1OC1CCN(S(=O)(=O)c2ccc(F)c(Cl)c2)CC1` | 12.55 |
| `COc1cc(CNc2nc(C(F)(F)F)no2)cc(OC)c1OC` | -32.92 |
| `CCc1cc(C)nc(N2CCN(C(C)c3nc(C)no3)CC2)n1` (stereo unspecified) | -2.256 |
| `CC(C)c1nc(C2CCCN2Cc2ccno2)no1` (stereo unspecified) | -19.82 |
| `Cn1nnn(-c2ccc(NS(=O)(=O)c3ccc(Br)cc3)cc2)c1=O` | 39.73 |
| `O=C(O)[C@H]1CCCN1CCOc1cccc(Cl)c1` | -0.6987 |
| `Cc1noc(C2CCN(C(=O)CCNS(C)(=O)=O)CC2)n1` | -7.386 |
| `O=C(COc1ccccc1Br)N1CCOc2ccncc21` | 14.07 |
| `CN(C)S(=O)(=O)NC1CC(=O)N(c2ccccc2Cl)C1` (stereo unspecified) | 14.57 |
| `CCC(C)NC(=O)Cn1ccc2sc(C)cc2c1=O` (stereo unspecified) | 17.39 |
| `O=C(O)C(F)(F)F.O=C(O)C(F)(F)F.[H][C@]12CCCC(N3CCN(c4ncccn4)CC3)[C@@]1([H])CN(C(C)=O)C2` (stereo partly specified) | -0.7092 |
| `Cc1ccc(CN2CCCC2(C(N)=O)c2cnccn2)c(C)c1` (stereo unspecified) | -1.756 |
| `CCc1nc(-c2ccc(C(=O)N3CCC4(CC3)OCCO4)cc2)no1` | 24.81 |

The first 4 entries again:

With Cc1ccc2c(c1)SCC(=O)N2CC(=O)N1CCCC1c1cc(C)on1 (stereo unspecified) the screen gave -6.374%.
With COCCNC(=O)C1CN(Cc2cccc(C)n2)Cc2ccnn2C1.O=C(O)C(F)(F)F.O=C(O)C(F)(F)F (stereo unspecified) the screen gave 13.09%.
With CCC1CN(CC(=O)NCCC#N)CCO1 (stereo unspecified) the screen gave -30.56%.
With CCc1nnsc1C(=O)NCCc1nnc2n1CCC2 the screen gave -83.93%.

Source: ChEMBL document CHEMBL3988442, “University of Dundee, Small-Polar-MMV Screening Library” (2021).